Test results taken from article PMC10509304.
These are yes or no findings as the source states them, for the method shown. In cells and extracts the contact can be indirect. Binding can be weak; no strength is given. Sequences can lack the tags named with a protein.

Legend:
[1] = molecular target: T1, murine CD81 with C-terminal 3xFLAG epitope, transiently expressed in HEK293 (mouse) (UniProt P35762); test: co-IP; transient co-expression in HEK293 cells; lysis in IP buffer with 1% Triton X-100; 3xFLAG-tagged tetraspanin precipitated with anti-FLAG M2 agarose; Western blot
T1 sequence: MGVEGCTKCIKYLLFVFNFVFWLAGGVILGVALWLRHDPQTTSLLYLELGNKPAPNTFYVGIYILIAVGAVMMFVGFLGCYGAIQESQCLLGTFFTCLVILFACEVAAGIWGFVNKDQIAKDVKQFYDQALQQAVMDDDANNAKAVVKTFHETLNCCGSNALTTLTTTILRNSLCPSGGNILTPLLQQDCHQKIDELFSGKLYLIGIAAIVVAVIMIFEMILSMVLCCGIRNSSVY

[2] = molecular target: T2, murine CD9 with C-terminal 3xFLAG epitope, transiently expressed in HEK293 (mouse) (UniProt P40240); test: as above
T2 sequence: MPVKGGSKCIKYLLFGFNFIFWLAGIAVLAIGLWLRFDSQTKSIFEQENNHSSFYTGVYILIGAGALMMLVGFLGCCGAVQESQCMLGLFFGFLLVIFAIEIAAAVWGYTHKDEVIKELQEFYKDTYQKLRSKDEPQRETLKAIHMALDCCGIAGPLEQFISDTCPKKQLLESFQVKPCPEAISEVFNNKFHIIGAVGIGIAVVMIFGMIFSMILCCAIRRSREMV

[3] = molecular target: T1, murine CD81 with C-terminal 3xFLAG epitope, transiently expressed in HEK293 (mouse); test: co-IP; transient co-expression in HEK293 cells; lysis in IP buffer (50 mM Tris/HCl pH 7.4, 150 mM NaCl, 4 mM EDTA) with 1% Brij-98; 3xFLAG-tagged tetraspanin precipitated with anti-FLAG M2 agarose overnight at 4°C; Western blot
[4] = molecular target: T2, murine CD9 with C-terminal 3xFLAG epitope, transiently expressed in HEK293 (mouse); test: as above

Measured: binding

N-terminal fragment (NTF) of HA-tagged murine TNF (mouse) (domain or fragment)
binds: all assays above
